Measured values: patent US20260055190A1, “ANTIBODIES FOR PLATELET FCyRIIA AND RELATED METHODS OF USE” (UNIVERSITY OF VERMONT AND STATE AGRICULTURAL COLLEGE, priority 2022, published 2026)
Some results were stated once for a whole list of compounds, not compound by compound.

Test system: FcγRIIa
Assay: Phosphorylation of FcγRIIa during platelet activation (immunoprecipitation, Western blot with anti-phosphotyrosine 4G10)
Type: cell-based, human
Conditions: platelets from low-risk subjects; thrombin 50 nM, convulxin 10 ng/ml, ADP 25 μM, PAF 100 nM
Description: FIGS. 1A-1E are western blots and graphs showing that platelet activation results in FcγRIIa being phosphorylated: Platelets (2×10^8 in 0.5 ml) from low-risk subjects isolated with the use of gel filtration were exposed to no agonist (FIG. 1E) or to thrombin (50 nM) (FIG. 1A), convulxin (10 ng/ml) (FIG. 1B), ADP (25 μM) (FIG. 1C), and PAF (100 nM) (FIG. 1D) for selected intervals before preparation of platelet lysates. FcγRIIa was separated by immunoprecipitation and Western blots were probed with an antiphosphotyrosine antibody (4G10), stripped, and re-probed with anti-FcγRIIa to confirm equal loading (data not shown). Fluorescence intensity of bands was quantified with the use of a Li-Cor system. Results (n=3-5 for each condition) are peak intensity that is not altered by adjusting the contrast of the image or the size of the area of interest, and were compared with those obtained when no agonist was used (Student's t test, *p<0.05, **p<0.01). […]
Immunoprecipitation was performed overnight at 4° C. with the use of goat anti-CD32A/C (Santa Cruz Biotechnology, Santa Cruz, Calif.) or a mouse anti-phosphotyrosine conjugated with magnetic beads (4G10, Millipore, Billerica, Mass.). […] Bands were detected with the use of use of a Li-Cor Odyssey Infrared Imaging system (Li-Cor Biosciences, Lincoln, Nebr.) or chemiluminescence (Amersham/General Electric Healthcare, Piscataway, N.J.).

Substance	time after exposure at which phosphorylation of FcγRIIa was greatest [min]
platelet activating factor [PAF]	1 to 2
thrombin	1 to 2
